# Source: PubChem BioAssay AID2685 (National Center for Advancing Translational Sciences (NCATS), 2010)
# The list shows a part of the results. The main result of the screen is listed elsewhere. These columns were measured beside it and carry no call. The list favours compounds with an active or inconclusive main result. The note in brackets gives the kind of curve behind each potency; many fits are weak.
# Assay: qHTS Assay for Lipid Storage Modulators in Drosophila S3 Cells;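 as to cell number change: cells counted by Cell Tracker Red CMTPX staining in the red channel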
# Conditions: BODIPY lipid droplet fluorescence, 18-24 h; for cell number change: measured here: cell count max response, cells fed with added oleic acid
# Summary of the method: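 Drosophila S3 cells loaded with oleic acid (400 uM, as added) and compounds at several concentrations; lipid droplets imaged by 488-nm laser-scanning cytometry, 500–530 nm intensity and object ratio to cell channel. Percent activity normalized to 20 uM Triacsin C.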
# [1] = measured here: cell number channel AC50, cells fed with added oleic acid
# [2] = measured here: lipid fluorescence (Fed channel) AC50, cells fed with added oleic acid
SMILES,cell number change [%],AC50 [1],AC50 [2]
CCCCCCCCCCCCCCCCn1cc[n+](CC(C)=O)c1,-81.9,"14.6 µM [falling, partial curve]","16.4 µM [falling, partial curve]"
NS(=O)(=O)c1cccc(NC(=O)CC23CC4CC(CC(Br)(C4)C2)C3)c1,0.794,–,"18.4 µM [rising, single point]"
O=C(Cc1ccc(Cl)cc1)Nc1ccc(Br)cc1,-8.61,"0.651 µM [falling, single point]",–
NC(=O)c1cc(S(=O)(=O)N2CCOCC2)ccc1Sc1ccccc1N,-1.3,–,–
O=C(COC(=O)c1ccc(O)cc1)c1ccc(S(=O)(=O)N2CCCCC2)cc1,-35.6,"32.6 µM [falling, single point]","0.00517 µM [falling, full curve, poor fit]"
O=C(NCCc1ccccc1)C(c1cccs1)N(C(=O)CCl)c1ccc(Cl)cc1 (stereo not drawn),-14.7,–,"18.4 µM [falling, single point]"
CC(C)[C@H](NC(N)=O)C(=O)Nc1ccc2c(c1)CCC2,-34.6,"25.9 µM [falling, single point]","0.651 µM [falling, full curve]"
O=C(NCCNC(=O)c1ccccn1)c1ccccc1,-2.63,"0.058 µM [falling, full curve, poor fit]",–
CCCC(NC(=O)Cc1c(C)c2c(cc(C)c3c(C)coc32)oc1=O)C(=O)O (stereo not drawn),4.96,–,"29.1 µM [rising, single point]"
COc1ccc(CCN(C)C(=O)C2CCN(Cc3ccccc3)CC2)cc1OC,-2.98,–,–
Cc1ccc(OCc2cc(C(=O)N3CCN(C4CCCCC4)CC3)no2)cc1C,-18.5,–,–
CCn1c(/N=C/c2c[nH]c3ccccc23)nc2ccccc21,-37.2,"18.4 µM [falling, single point]","29.1 µM [falling, single point]"
COc1cccc(C(=O)NCc2cn3ccsc3n2)c1,67.5,–,–
Cc1cccc(N2CCN(CC(O)COc3ccc(Cl)cc3)CC2)c1 (stereo not drawn),-34.4,"16.4 µM [falling, single point]","29.1 µM [falling, single point]"
C=CCSc1nc2c(sc3nc(C)cc(C)c32)c(=O)[nH]1,-12.4,–,"0.58 µM [rising, single point]"
O=C(Nc1ccc(S(=O)(=O)N2CCCCC2)cc1)C1CC(=O)N(c2ccccc2)C1 (stereo not drawn),19.7,"0.0058 µM [rising, full curve, poor fit]",–
Cc1cccc(NC(=S)N/N=C/c2c[nH]c3ccccc23)c1,-40,"18.4 µM [falling, single point]",–
COCCn1c(Cc2ccccc2)nnc1SCC(=O)NC(C)C,12.9,–,"29.1 µM [falling, single point]"
O=C(Nc1ccc(Cl)cc1)C(c1ccccc1)N1CCOCC1 (stereo not drawn),4.78,–,–
CCC(C)Sc1nc2c(c(=O)[nH]c(=O)n2C)n1Cc1ccccc1Cl (stereo not drawn),–,"4.61 µM [rising, partial curve]","4.11 µM [rising, partial curve]"
N#CC1=C(N)Nc2nc3ccccc3n2C1c1ccc(Cl)cc1 (stereo not drawn),–,"0.58 µM [falling, single point]","2.31 µM [rising, partial curve]"

SMILES,cell number change [%],AC50 [1],AC50 [2]
CCOc1ccccc1/C=C\c1nc(O)c([N+](=O)[O-])c(=O)[nH]1,35.6,"32.6 µM [rising, single point]","13 µM [rising, partial curve, poor fit]"
CCN(Cc1ccncc1)C(=O)c1cc(COc2c(C)cccc2C)on1,15.4,–,"6.31 µM [rising, single point]"
CCCNC(=O)CS(=O)Cc1nc(-c2ccc(OC)cc2)oc1C (stereo not drawn),17.3,–,–
Cc1cccc(N2C(=O)NC3(CCCCC3)C2=O)c1,9.08,–,–
COc1ccc(C(=O)NCC(=O)OCC(=O)Nc2cc(OC)ccc2OC)cc1,–,"6.51 µM [falling, single point]",–
CSc1ncccc1C(=O)Nc1cccc(C)n1,-55.2,–,–
O=C(Nc1c2c(nn1-c1ccccc1)CS(=O)(=O)C2)c1ccco1,15.5,–,"0.0206 µM [rising, full curve, poor fit]"
COc1cccc2oc3ccc(C#Cc4ccccn4)cc3c(=O)c12,–,–,"0.461 µM [falling, partial curve, poor fit]"
O=C(CSc1nc(N2CCOCC2)nc(N2CCOCC2)n1)Nc1cccc(C(F)(F)F)c1,31,–,–
OCC1CCN(Cc2nc(Cc3ccccc3Cl)no2)CC1,-9.62,–,"0.116 µM [falling, full curve, poor fit]"
O=C(NCc1ccco1)c1ccc(C(=O)NCc2ccco2)s1,3.8,–,–
CC1CCN(S(=O)(=O)c2ccc(C(=O)Nc3nnc(C4CC4)o3)cc2)CC1,-17.7,"0.0366 µM [falling, full curve, poor fit]",–
O=C(Cc1cccs1)Nc1nc2c(ccc3ccccc32)s1,-32.2,"29.1 µM [falling, single point]",–
COC(=O)c1cccc(-c2ccc(C(c3c(C)[nH][nH]c3=O)c3c(C)[nH][nH]c3=O)o2)c1,-65.7,"29.1 µM [falling, partial curve, poor fit]",–
CCOC(=O)N1CCN(S(=O)(=O)N2CCCC(C(=O)NCc3ccc(F)cc3)C2)CC1 (stereo not drawn),-9.17,–,"6.51 µM [falling, single point]"
COc1ccc(NC(=O)CCS(=O)(=O)c2ccc3c(c2)CCN3C(C)=O)cc1,8.56,–,"29.1 µM [rising, single point]"
COc1ccc(C(=O)NCc2ccccc2OC)c(OC)c1,-6.75,–,"7.31 µM [rising, partial curve, poor fit]"
Cc1ccc(S(=O)(=O)CCC(=O)Nc2nc(-c3cccnc3)cs2)cc1,–,–,"14.6 µM [falling, partial curve]"
CCOC(=O)/C(C#N)=C/C=C1\C=Cc2ccccc2N1CC,-0.955,–,"10.3 µM [falling, partial curve, poor fit]"
O=C1NC2(CCCCC2)N(C(=O)c2ccccc2)C2=C1CCCC2,-33.9,"23.1 µM [falling, single point]",–
O=C(CNCCC1=CCCCC1)Nc1ccc(N2CCCCCC2)cc1,-90.6,"20.6 µM [falling, single point]",–

# Not a retest: entries from further up.
SMILES,cell number change [%],AC50 [1],AC50 [2]
COc1ccc(C(=O)NCC(=O)OCC(=O)Nc2cc(OC)ccc2OC)cc1,–,"6.51 µM [falling, single point]",–
CSc1ncccc1C(=O)Nc1cccc(C)n1,-55.2,–,–
O=C(Nc1c2c(nn1-c1ccccc1)CS(=O)(=O)C2)c1ccco1,15.5,–,"0.0206 µM [rising, full curve, poor fit]"
COc1cccc2oc3ccc(C#Cc4ccccn4)cc3c(=O)c12,–,–,"0.461 µM [falling, partial curve, poor fit]"
O=C(CSc1nc(N2CCOCC2)nc(N2CCOCC2)n1)Nc1cccc(C(F)(F)F)c1,31,–,–
OCC1CCN(Cc2nc(Cc3ccccc3Cl)no2)CC1,-9.62,–,"0.116 µM [falling, full curve, poor fit]"
O=C(NCc1ccco1)c1ccc(C(=O)NCc2ccco2)s1,3.8,–,–
CC1CCN(S(=O)(=O)c2ccc(C(=O)Nc3nnc(C4CC4)o3)cc2)CC1,-17.7,"0.0366 µM [falling, full curve, poor fit]",–
O=C(Cc1cccs1)Nc1nc2c(ccc3ccccc32)s1,-32.2,"29.1 µM [falling, single point]",–
COC(=O)c1cccc(-c2ccc(C(c3c(C)[nH][nH]c3=O)c3c(C)[nH][nH]c3=O)o2)c1,-65.7,"29.1 µM [falling, partial curve, poor fit]",–
CCOC(=O)N1CCN(S(=O)(=O)N2CCCC(C(=O)NCc3ccc(F)cc3)C2)CC1 (stereo not drawn),-9.17,–,"6.51 µM [falling, single point]"
COc1ccc(NC(=O)CCS(=O)(=O)c2ccc3c(c2)CCN3C(C)=O)cc1,8.56,–,"29.1 µM [rising, single point]"
COc1ccc(C(=O)NCc2ccccc2OC)c(OC)c1,-6.75,–,"7.31 µM [rising, partial curve, poor fit]"
Cc1ccc(S(=O)(=O)CCC(=O)Nc2nc(-c3cccnc3)cs2)cc1,–,–,"14.6 µM [falling, partial curve]"
CCOC(=O)/C(C#N)=C/C=C1\C=Cc2ccccc2N1CC,-0.955,–,"10.3 µM [falling, partial curve, poor fit]"

# (list continues)

SMILES,cell number change [%],AC50 [1],AC50 [2]
C/C(O)=C(\C#N)c1nc2ccccc2[nH]1,96.9,"11.6 µM [rising, partial curve, poor fit]","20.6 µM [rising, partial curve]"
N#CCCn1cc(C(=O)N2CCCCC2)c(-c2cccc([N+](=O)[O-])c2)n1,–,–,"6.51 µM [falling, single point]"
Cn1cccc1/C=C1/SC(=S)N(CC(=O)O)C1=O,15,"0.0058 µM [rising, full curve, poor fit]","0.231 µM [rising, full curve, poor fit]"
CCc1nnc(NC(=O)c2ccc(S(=O)(=O)NCC(C)C)cc2)s1,-15,–,"0.651 µM [falling, single point]"
CCc1ccc(-n2nc3cc(C)c(N)cc3n2)cc1,-21.8,–,–
O=C(Nc1nc(-c2ccc(F)c(F)c2)cs1)Nc1ccc(F)cc1F,103,"9.2 µM [rising, partial curve]","16.4 µM [falling, single point]"
O=C(CCNc1ccc(Br)cc1)c1cccc([N+](=O)[O-])c1,-44.7,–,–
O=c1c2cc(N3CCOCC3)ccc2[nH]c(=S)n1CCCN1CCCC1,45.8,"29.1 µM [rising, single point]","20.6 µM [rising, single point]"
CC(NC(=O)NCC1CCCO1)(C(F)(F)F)C(F)(F)F (stereo not drawn),-29.6,"0.651 µM [falling, full curve, poor fit]","0.651 µM [falling, full curve]"
COc1ccc(C(C)=O)cc1CC(=O)NCCCn1ccnc1,-0.901,–,"29.1 µM [falling, single point]"
COCCNC(=S)N1CCc2cc(OC)c(OC)cc2C1COc1ccc(C(C)C)cc1 (stereo not drawn),0.879,–,–
Cc1cccnc1NC(=O)c1ccc(COc2ccccc2)o1,24,–,"9.2 µM [rising, partial curve, poor fit]"
COc1ccc(NC(=S)N2CCN(Cc3ccccc3)CC2)c(OC)c1,-25.9,"0.0731 µM [falling, full curve, poor fit]",–
O=C(Nc1cc(Cl)ccc1Cl)c1ccc(OC(=O)c2ccco2)cc1,101,"18.4 µM [rising, single point]","29.1 µM [rising, single point]"
Cc1c(O)c(=O)ccn1C,12.8,–,"0.517 µM [rising, full curve, poor fit]"
C/C(CC(=O)Nc1cccc(F)c1)=N\NC(=O)C(=O)NC1CCCCC1,8.61,"3.66 µM [falling, partial curve]",–
COC(=O)/C=c1/s/c(=C(/C#N)C(=O)NCc2ccccc2)n(-c2ccccc2)c1=O,–,"0.58 µM [rising, single point]",–
Cc1ccc(-c2nc3sc4c(N)ncnc4c3c3c2CCCC3)cc1,10.4,–,–
CSc1nnc(-c2cnccn2)n1CCCN1CCCC1=O,-2.1,"0.103 µM [falling, full curve, poor fit]",–
COc1cc(CNCCN2CCOCC2)ccc1OCc1ccc(Cl)cc1Cl,-59.9,"29.1 µM [falling, single point]","6.51 µM [falling, single point]"
